Results taken from article PMC4675558.
Positions count from the first letter of the chain named. Results are given in words; binding and its absence hold for the method and conditions named. In cells and extracts the contact can be indirect. Binding calls can cover weak binding; strength is not graded here. Sequences can lack the tags named with a protein.

Tests used:
[1] = target: T1, (MBP)-Met30(1-186) (S. cerevisiae) (UniProt P39014); assay: pull-down; MBP-tagged proteins on amylose resin incubated with 3 mg of bacterial lysate expressing Cdc53(267-851)/GST-Rbx1, 2 h at 4°C, recombinant protein buffer; detected with anti-Cdc53 antibodies; only the target purified
T1 sequence: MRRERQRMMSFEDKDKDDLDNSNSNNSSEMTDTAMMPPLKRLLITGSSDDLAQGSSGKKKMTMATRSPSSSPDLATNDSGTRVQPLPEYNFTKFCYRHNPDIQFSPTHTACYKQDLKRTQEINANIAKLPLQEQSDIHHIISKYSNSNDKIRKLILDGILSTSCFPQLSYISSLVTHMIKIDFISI

[2] = target: T2, (MBP)-Met30(1-186) M178E/I179E (S. cerevisiae) (UniProt P39014); assay: as above
T2 sequence: T1 sequence with M178E, I179E

Q: For “Cdc53(267-851)/GST-Rbx1 complex expressed in bacteria (S. cerevisiae)”, which binding [1] is on record?
A: binds

Q: What about the binding [2] of the same substance?
A: binds
